In PubChem BioAssay AID1487 (National Center for Advancing Translational Sciences (NCATS), 2009):
Some of the results follow. Further columns of the screen follow, without active or inactive calls. Most of these compounds were active or inconclusive in the main read-out, so they are no random draw. Potencies come from curve fits of mixed quality, noted in brackets.

Test: qHTS Assay for Modulators of Lamin A Splicing
Conditions: HeLa LMNA splicing GFP/RFP minigene ratio, 48 h
In short: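 S3 HeLa cells stably expressing lamin A-EGFP splicing minigene plus DsRed2, 600 cells/well, 48 h compound exposure at 37C. Laser-scanning cytometry; analysed as GFP (500-530 nm)/RFP (575-640 nm) total intensity ratio; 0.5% DMSO vehicle.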

[1] = measured here: GFP splicing reporter channel
[2] = measured here: RFP viability control channel

Row | Compound | AC50 [1] | AC50 [2]
1 | CC1=C(C(=O)OCc2ccccc2)C(/C=C/c2ccccc2)N2C(=O)CCSC2=N1 (configuration not stated) | 11.2 µM [rising, partial curve] | 17.8 µM [rising, single point]
2 | COc1cc(OC)c2c(C)cc(=O)oc2c1 | – | 35.5 µM [rising, single point]
3 | COc1ccc2nc(N3CCN(C(=O)C4CC4)CC3)sc2c1 | 1.58 µM [rising, full curve] | 0.794 µM [rising, partial curve, poor fit]
4 | CC(/C=C/c1ccccc1)=N\NC(=O)CNC(=O)c1ccccc1Cl | 12.6 µM [rising, single point] | –
5 | Cc1cc(C(=O)CN2C(=O)C(=O)N(C3CCCC3)C2=O)c(C)n1-c1ccc(F)cc1 | 3.55 µM [falling, partial curve] | 5.01 µM [falling, partial curve]
6 | CCN1CCN(C(=O)c2ccc(-c3nc4ccccc4s3)s2)CC1 | – | 0.562 µM [falling, full curve, poor fit]
7 | COC(=O)c1ccc(Cn2cnc3c(cnn3-c3ccc(F)cc3)c2=O)o1 | 14.1 µM [rising, single point] | 17.8 µM [rising, single point]
8 | COc1ccc(CCN(Cc2cccs2)S(=O)(=O)c2ccc(-n3cnnn3)cc2)cc1OC | – | 35.5 µM [rising, single point]
9 | Cc1noc(C)c1Cc1c(Cl)cccc1Cl | – | 0.794 µM [falling, full curve, poor fit]
10 | CN(C)c1nc(OCCNC(=O)COc2ccc(Cl)cc2Cl)nc(N(C)C)n1 | – | 15.8 µM [rising, single point]
11 | CCN(CC)S(=O)(=O)c1ccc(C)c(N=C=S)c1 | 6.31 µM [rising, partial curve, poor fit] | 2.82 µM [rising, full curve, poor fit]
12 | Cc1ccc(CCNc2ncnc3onc(C)c23)cc1 | – | 22.4 µM [rising, single point]
13 | CN(C)c1ccc(/C=C2/NC(=O)NC2=O)cc1 | 6.31 µM [falling, full curve, poor fit] | 5.62 µM [falling, full curve]
14 | CSc1cccc(Nc2cc(C(=O)NCCCN(Cc3ccccc3)C(C)C)c3ccccc3n2)c1 | 12.6 µM [falling, partial curve] | 12.6 µM [falling, partial curve]
15 | COc1ccc(-c2n[nH]c(=S)n2/N=C/C=C\c2ccccc2OC)cc1 | – | 5.01 µM [rising, single point]
